# The list shows a part of the results.
# Protein sequences, listed by entry. Tags and fused reporters are not part of them. Lines headed by an entry give the natural chain unless they say otherwise; changes in a name come on top.
# UniProt Q8IVT5: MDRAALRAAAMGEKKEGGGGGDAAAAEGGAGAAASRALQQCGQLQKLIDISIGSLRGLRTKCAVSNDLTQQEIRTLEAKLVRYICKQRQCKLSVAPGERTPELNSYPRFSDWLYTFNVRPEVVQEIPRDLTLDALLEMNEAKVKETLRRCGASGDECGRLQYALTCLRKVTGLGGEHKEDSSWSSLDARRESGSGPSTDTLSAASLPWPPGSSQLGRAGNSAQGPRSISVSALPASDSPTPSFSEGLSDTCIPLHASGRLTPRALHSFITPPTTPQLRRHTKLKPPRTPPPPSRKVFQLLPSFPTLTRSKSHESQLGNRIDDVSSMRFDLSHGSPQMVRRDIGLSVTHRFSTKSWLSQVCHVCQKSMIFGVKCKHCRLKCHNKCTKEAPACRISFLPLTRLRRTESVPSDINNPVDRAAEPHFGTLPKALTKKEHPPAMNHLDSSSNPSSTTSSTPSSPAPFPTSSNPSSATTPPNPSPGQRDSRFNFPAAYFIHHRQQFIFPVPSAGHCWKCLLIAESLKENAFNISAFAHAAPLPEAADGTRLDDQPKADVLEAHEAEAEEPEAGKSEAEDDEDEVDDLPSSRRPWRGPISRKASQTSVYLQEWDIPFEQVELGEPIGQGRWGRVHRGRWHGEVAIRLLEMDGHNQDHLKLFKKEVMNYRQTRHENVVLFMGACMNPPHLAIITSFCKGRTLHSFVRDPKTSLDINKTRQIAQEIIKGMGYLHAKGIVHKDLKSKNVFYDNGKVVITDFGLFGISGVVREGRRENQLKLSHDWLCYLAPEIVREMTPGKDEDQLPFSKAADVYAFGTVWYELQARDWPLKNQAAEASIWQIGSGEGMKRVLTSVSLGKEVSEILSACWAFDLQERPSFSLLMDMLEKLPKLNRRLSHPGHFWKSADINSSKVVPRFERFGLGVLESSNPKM
# UniProt Q9Y496, whole entry, looked up: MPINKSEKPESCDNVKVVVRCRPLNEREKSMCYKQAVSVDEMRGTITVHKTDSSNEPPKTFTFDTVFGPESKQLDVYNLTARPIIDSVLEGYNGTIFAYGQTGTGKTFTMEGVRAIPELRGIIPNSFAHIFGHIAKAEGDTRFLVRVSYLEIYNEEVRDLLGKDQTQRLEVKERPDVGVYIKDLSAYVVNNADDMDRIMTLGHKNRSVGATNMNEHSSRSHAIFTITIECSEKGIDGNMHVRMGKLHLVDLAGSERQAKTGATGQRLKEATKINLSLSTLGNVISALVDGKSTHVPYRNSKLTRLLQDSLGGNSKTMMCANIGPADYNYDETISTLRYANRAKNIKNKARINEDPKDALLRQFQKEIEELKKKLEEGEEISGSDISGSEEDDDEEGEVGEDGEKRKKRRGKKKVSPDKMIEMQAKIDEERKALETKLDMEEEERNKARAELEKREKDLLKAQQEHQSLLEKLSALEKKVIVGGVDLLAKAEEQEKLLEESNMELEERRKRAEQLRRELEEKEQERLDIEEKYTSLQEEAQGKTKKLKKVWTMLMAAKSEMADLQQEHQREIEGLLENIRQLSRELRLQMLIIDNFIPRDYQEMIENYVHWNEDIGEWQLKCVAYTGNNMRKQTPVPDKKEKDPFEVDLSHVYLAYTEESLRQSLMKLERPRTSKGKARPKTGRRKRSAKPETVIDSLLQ
# UniProt Q1ED39: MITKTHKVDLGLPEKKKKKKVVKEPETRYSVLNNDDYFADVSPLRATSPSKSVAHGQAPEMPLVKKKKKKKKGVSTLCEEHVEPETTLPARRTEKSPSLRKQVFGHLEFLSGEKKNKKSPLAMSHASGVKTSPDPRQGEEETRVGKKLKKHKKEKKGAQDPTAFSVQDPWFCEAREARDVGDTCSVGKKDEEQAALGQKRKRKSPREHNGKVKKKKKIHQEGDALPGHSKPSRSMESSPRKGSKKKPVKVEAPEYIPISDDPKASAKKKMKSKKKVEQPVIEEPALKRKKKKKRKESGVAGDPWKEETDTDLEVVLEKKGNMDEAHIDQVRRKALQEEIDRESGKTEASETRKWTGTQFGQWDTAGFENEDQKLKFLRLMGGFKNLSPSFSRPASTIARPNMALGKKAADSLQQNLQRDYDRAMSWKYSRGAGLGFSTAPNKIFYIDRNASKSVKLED
# UniProt Q96EK5: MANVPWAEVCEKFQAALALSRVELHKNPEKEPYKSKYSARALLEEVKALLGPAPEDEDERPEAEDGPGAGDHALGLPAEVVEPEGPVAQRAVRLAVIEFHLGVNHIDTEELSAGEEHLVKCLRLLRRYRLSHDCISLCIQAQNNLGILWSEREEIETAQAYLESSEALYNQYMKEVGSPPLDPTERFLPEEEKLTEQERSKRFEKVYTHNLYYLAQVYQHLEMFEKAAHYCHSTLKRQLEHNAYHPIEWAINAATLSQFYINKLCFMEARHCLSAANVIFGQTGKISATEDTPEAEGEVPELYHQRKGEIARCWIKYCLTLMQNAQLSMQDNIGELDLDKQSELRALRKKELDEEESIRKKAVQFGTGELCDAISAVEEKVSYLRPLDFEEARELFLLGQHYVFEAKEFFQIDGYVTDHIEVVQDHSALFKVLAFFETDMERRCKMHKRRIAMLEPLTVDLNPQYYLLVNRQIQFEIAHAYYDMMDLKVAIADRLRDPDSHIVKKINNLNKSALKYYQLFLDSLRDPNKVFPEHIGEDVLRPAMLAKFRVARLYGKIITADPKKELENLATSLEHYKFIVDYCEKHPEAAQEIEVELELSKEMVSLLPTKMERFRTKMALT
# UniProt Q9H079: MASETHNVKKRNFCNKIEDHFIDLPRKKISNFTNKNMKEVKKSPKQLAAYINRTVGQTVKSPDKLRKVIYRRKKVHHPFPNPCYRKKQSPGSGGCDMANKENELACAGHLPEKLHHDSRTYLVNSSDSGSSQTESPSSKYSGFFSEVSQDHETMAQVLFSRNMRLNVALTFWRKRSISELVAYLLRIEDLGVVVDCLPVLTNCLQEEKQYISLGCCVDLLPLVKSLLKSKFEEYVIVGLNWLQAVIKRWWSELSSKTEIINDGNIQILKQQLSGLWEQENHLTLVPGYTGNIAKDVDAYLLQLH
# UniProt P50748: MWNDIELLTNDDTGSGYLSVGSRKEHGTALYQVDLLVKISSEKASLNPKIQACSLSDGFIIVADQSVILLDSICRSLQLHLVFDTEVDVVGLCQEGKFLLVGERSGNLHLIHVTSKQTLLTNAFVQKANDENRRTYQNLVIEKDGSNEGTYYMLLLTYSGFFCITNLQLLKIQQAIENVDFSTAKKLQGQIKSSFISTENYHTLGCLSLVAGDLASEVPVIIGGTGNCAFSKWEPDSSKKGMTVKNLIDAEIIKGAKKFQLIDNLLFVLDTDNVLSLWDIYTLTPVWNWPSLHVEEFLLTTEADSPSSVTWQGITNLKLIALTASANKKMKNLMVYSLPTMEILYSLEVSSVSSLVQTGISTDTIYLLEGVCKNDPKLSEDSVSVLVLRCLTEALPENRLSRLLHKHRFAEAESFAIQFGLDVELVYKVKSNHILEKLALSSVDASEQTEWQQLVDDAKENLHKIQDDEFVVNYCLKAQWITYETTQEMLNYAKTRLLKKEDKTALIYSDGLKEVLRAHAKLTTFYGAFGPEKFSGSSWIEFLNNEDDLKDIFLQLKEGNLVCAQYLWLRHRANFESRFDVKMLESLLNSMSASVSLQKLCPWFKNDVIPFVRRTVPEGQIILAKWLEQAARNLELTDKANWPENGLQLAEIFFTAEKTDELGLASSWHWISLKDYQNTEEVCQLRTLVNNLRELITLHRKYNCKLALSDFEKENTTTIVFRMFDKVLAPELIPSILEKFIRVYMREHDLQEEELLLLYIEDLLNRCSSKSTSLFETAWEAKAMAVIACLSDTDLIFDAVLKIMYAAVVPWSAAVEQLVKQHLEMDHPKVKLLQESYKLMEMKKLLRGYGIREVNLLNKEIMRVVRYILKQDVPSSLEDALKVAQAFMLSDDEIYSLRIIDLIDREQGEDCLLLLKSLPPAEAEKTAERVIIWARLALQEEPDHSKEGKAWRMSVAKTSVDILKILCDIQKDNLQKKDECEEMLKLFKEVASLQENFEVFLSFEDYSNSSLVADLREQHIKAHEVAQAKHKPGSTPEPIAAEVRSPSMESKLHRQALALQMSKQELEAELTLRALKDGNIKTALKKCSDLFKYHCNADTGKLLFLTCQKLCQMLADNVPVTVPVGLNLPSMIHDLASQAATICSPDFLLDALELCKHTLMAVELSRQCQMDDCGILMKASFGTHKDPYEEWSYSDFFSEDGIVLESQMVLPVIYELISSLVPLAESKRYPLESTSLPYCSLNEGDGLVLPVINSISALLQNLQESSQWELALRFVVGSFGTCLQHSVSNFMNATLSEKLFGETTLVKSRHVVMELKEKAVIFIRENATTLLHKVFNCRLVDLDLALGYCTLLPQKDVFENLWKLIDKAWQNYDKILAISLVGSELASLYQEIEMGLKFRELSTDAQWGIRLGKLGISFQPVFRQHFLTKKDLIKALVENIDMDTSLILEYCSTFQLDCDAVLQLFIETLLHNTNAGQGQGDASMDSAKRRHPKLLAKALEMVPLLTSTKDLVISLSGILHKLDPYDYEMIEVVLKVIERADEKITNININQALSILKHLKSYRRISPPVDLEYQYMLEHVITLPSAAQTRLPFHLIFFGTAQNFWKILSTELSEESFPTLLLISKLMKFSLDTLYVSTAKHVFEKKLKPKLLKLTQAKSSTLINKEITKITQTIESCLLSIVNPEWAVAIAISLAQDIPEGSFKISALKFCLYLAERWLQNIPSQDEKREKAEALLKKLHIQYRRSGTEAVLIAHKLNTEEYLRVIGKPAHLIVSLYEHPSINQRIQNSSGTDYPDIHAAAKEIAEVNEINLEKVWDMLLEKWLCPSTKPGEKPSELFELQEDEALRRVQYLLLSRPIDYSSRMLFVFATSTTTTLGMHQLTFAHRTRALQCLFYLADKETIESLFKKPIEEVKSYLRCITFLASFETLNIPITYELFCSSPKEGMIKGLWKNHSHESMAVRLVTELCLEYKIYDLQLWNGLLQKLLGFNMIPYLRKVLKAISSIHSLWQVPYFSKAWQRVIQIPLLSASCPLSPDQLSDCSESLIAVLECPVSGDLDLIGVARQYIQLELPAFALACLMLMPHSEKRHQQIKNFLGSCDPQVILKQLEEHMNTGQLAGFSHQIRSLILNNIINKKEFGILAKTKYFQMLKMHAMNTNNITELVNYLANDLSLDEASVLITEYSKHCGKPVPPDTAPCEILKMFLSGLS
# UniProt O15066: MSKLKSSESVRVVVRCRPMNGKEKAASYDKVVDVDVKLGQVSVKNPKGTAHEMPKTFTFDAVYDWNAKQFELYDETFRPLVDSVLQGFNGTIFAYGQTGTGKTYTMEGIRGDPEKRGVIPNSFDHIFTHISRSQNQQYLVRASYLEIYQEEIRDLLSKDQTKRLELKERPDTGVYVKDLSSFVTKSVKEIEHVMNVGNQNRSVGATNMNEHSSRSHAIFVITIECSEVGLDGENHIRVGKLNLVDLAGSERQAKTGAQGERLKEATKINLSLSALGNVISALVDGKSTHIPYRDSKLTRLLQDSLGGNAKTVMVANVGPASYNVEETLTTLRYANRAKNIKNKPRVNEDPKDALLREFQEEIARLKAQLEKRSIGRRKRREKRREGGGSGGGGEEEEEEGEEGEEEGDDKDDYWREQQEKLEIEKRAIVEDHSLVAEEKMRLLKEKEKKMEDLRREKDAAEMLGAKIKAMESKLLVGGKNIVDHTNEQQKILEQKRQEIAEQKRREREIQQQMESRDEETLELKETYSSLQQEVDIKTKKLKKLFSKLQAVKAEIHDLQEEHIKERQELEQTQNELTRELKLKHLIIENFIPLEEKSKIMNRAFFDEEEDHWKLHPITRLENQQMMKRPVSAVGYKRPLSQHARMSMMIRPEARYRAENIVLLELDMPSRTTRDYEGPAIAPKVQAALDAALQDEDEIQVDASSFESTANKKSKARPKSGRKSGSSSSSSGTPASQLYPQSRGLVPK
# UniProt Q8N6L1: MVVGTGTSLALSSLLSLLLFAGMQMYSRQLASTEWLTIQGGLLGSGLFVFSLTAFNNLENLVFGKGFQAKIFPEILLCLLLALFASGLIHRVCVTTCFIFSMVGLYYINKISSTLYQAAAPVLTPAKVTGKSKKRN
# UniProt Q13351: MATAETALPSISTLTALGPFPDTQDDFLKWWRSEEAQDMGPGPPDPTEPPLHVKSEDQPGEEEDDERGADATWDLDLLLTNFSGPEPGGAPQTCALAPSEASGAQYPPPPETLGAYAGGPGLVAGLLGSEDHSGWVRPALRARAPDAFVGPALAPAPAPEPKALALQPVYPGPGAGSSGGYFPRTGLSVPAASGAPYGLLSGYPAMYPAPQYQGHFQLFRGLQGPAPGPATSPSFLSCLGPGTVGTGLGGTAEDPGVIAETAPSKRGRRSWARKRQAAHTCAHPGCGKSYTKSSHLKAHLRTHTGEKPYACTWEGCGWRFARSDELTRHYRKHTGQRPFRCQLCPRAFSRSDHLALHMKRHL
# Compound: CNc1nc(-c2ccc3c(N)n[nH]c3c2)cc(N2C[C@@H](C(=O)NC3CCCCC3)CC[C@H]2C)n1
# Test: log2 fold change, soluble protein after heating vs DMSO (PISA); higher = thermal stabilisation; K562 cells, 10 uM, 30 min; active = over 0.2 and 3.5 SD of the protein, either way, in both replicates (recomputed)
# In short: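 Thermal stability values are relative to control samples and come from duplicates. They are expressed as log2 fold changes. For measurement, K562 cells (2×10^6 cells/mL) received 10 μM compound for 30 min, and aliquots were heated for 3 min over 48°C-58°C, pooled, and extracted at 4°C in PBS with 0.5% NP-40. Soluble protein, the supernatant after 21,000xg for 90 min, was quantified by TMTpro 16plex LC-MS/MS with equalised channel sums.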
row,Target,log2 fold change
1,KSR1 (UniProt Q8IVT5),inactive: 0.038
2,KIF3A (UniProt Q9Y496),inactive: 0.037
3,KPNB1 (UniProt Q14974),inactive: 0.032
4,KCNN4 (UniProt O15554),inactive: -0.125
5,KLHL18 (UniProt O94889),inactive: 0.007
6,KNOP1 (UniProt Q1ED39),inactive: 0.191
7,KIFBP (UniProt Q96EK5),inactive: -0.019
8,KIF13B (UniProt Q9NQT8),inactive: -0.151
9,KCNK5 (UniProt O95279),active: -1.08
10,KPNA1 (UniProt P52294),inactive: -0.078
11,KIAA1755 (UniProt Q5JYT7),inactive: -0.007
12,KATNBL1 (UniProt Q9H079),inactive: -0.18
13,KIF14 (UniProt Q15058),inactive: 0.102
14,KBTBD4 isoform 2 (UniProt Q9NVX7),inactive: -0.129
15,KHDC4 (UniProt Q7Z7F0),inactive: 0.023
16,KNTC1 (UniProt P50748),inactive: -0.076
17,KIF3B (UniProt O15066),inactive: -0.063
18,KLC2 (UniProt Q9H0B6),inactive: 0.051
19,KRTCAP2 isoform 2 (UniProt Q8N6L1),inactive: -0.047
20,KLF1 (UniProt Q13351),inactive: 0.09
21,KNG1 (UniProt P01042),inactive: -0.008
22,KEAP1 (UniProt Q14145),inactive: -0.015
23,KLF16 (UniProt Q9BXK1),inactive: -0.098

# Reprinted at random: 2 entries already listed, in no set order.
row,Target,log2 fold change
6,KNOP1 (UniProt Q1ED39),inactive: 0.191
23,KLF16 (UniProt Q9BXK1),inactive: -0.098
